Assay [1] concerns the target BAF155^SWIRM (SWIRM domain of human BAF155, residues 449–546) (human) (UniProt Q92922). Briefly: SEC; Superdex 200 16/60, 25 °C, 10 mM HEPES pH 7.0, 100 mM NaCl, 2 mM DTT; hSNF5^171–258 0.2 mM and BAF155^SWIRM 0.3 mM loaded individually or together; both purified. For orientation: SEC sorts molecules by how far they enter the pores of the column.
Assay [2] shares this target. Briefly: SEC-MALS; Wyatt WTC-030S5 column, 0.5 mL/min, 10 mM HEPES pH 7.0, 100 mM NaCl, 2 mM DTT; hSNF5^171–258 0.2 mM and BAF155^SWIRM 0.3 mM, individually or together; both purified.
The target of assay [3] is hSNF5^171–258 (N- and C-terminal elongated hSNF5 RPT1 domain) (human) (UniProt Q12824). Briefly: SEC; Superdex 200 16/60, 25 °C, 10 mM HEPES pH 7.0, 100 mM NaCl, 2 mM DTT; hSNF5^171–258 0.2 mM and BAF155^SWIRM 0.3 mM loaded individually or together; both purified.
Assay [4] shares this target. Briefly: SEC-MALS; Wyatt WTC-030S5 column, 0.5 mL/min, 10 mM HEPES pH 7.0, 100 mM NaCl, 2 mM DTT; hSNF5^171–258 0.2 mM and BAF155^SWIRM 0.3 mM, individually or together; both purified.

Sequences of proteins named here, by UniProt entry; tags and fusion partners are left off. Residues count along the entry.
UniProt Q92922, residues 449-546: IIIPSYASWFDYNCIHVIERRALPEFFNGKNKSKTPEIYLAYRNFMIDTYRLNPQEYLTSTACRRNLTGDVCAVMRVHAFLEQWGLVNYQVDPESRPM

No constants are given. Whether binding was seen depends on the method and setting.

For 2 molecules, binding results are on record in paper PMC7177284, “A Coil-to-Helix Transition Serves as a Binding Motif for hSNF5 and BAF155 Interaction” (International Journal of Molecular Sciences, 2020).

As to “BAF155^SWIRM (SWIRM domain of human BAF155, residues 449–546) (from UniProt Q92922 449-546) (domain or fragment)”, the binding result in assay [1] and in assay [2] was “no binding (tested: 0.3 mM)” throughout.

B1: hSNF5^171–258 (N- and C-terminal elongated hSNF5 RPT1 domain) (domain or fragment, human, UniProt Q12824 171-258, looked up)
chain: HDPAVIHENASQPEVLVPIRLDMEIDGQKLRDAFTWNMNEKLMTPEMFSEILCDDLDLNPLTFVPAIASAIRQQIESYPTDSILEDQS
notes: 15N- or 13C,15N-labelled for the NMR experiments; modified pET21b vector; also called human SNF5; SNF5/INI1/BAF47; source: E. coli BL21 (DE3), purified (Ni-NTA, TEV cleavage, Superdex 200); not shown: His6, N-terminal, cleaved
For B1, the binding entry in assay [3] and in assay [4] was “no binding (tested: 0.2 mM)” throughout.
